{
  "source": "patent US20070232639",
  "about": "(published 2007)",
  "assay": "general procedure: Fmoc solid-phase peptide synthesis; Sasrin resin; HOBT, TBTU, DIEA",
  "settings": "whole synthesis, scale 0.69 mmol, TFA",
  "data": [
    {"substance": "c(Arg(Pmc)-Gly-As-p(OtBu)-D-Phe-Aad)", "values": [
      {"measurement": "isolated mass", "result": 187, "unit": "mg"}
    ]}
  ]
}
